In PubChem BioAssay AID1479144 (National Center for Advancing Translational Sciences (NCATS), 2020):
The shares of active, inactive and inconclusive entries below differ from those in the screen. A potency beside an inconclusive call is a rough fit, not a confirmed value. Active and inactive are the calls of the source. The call rests on the fitted dose curve.

Assay: Confirmatory qHTS for Vero E6 cytotoxicity: counterscreen for inhibitors of SARS-S pseudo-typed particle cell entry

SMILES | Potency
COc1cc([C@@H]2c3cc4c(cc3C(O[C@@H]3O[C@@H]5CO[C@@H](c6cccs6)OC5[C@H](O)[C@H]3O)C3COC(=O)[C@@H]32)OCO4)cc(OC)c1O (some centres not stated) | active: 24.1 µM
Cc1c(N)nc(C(CC(N)=O)NCC(N)C(N)=O)nc1C(=O)NC(C(=O)NC(C)C(O)C(C)C(=O)NC(C(=O)NCCc1nc(-c2nc(C(=O)NCCCN[C@@H](C)c3ccccc3)cs2)cs1)C(C)O)C(O[C@@H]1O[C@@H](CO)[C@@H](O)[C@H](O)[C@@H]1O[C@H]1O[C@H](CO)[C@@H](O)[C@H](OC(N)=O)[C@@H]1O)c1cnc[nH]1 (some centres not stated) | inactive
COC(=O)C1=C(C)NC(C)=C(C(=O)OCC(C)C)C1c1ccccc1[N+](=O)[O-] (configuration not stated) | active: 27.1 µM
CN(C)CCC=C1c2ccccc2C(C)(C)c2ccccc21 | inactive
CN1CCC(=C2c3ccccc3CCc3sccc32)CC1 | inactive
COc1cc(N)c(Cl)cc1C(=O)NC1CCN(CCCOc2ccc(F)cc2)CC1OC (configuration not stated) | inactive
O=c1[nH]c(=O)n([C@H]2C[C@H](O)[C@@H](CO)O2)cc1C(F)(F)F | inactive
CCSc1ccc2c(c1)N(CCCN1CCN(C)CC1)c1ccccc1S2 | inconclusive: 24.1 µM [cytotoxic, partial curve]
COc1ccc2cc3[n+](cc2c1OC)CCc1cc2c(cc1-3)OCO2 | inconclusive: 42.9 µM [cytotoxic, single point]
CCN(CC)CCNC(=O)c1c(C)[nH]c(/C=C2\C(=O)Nc3ccc(F)cc32)c1C | inconclusive: 42.9 µM [cytotoxic, single point]
C=CC1(C)CC(=O)C2(O)C(C)(O1)C(OC(C)=O)C(OC(=O)CCN(C)C)C1C(C)(C)CCC(O)C12C (configuration not stated) | inactive
Cc1nn(C)c2c1C(c1ccccc1F)=NCC(=O)N2C | inactive
Cc1nnc2n1-c1sc(CCc3ccc(CC(C)C)cc3)cc1C(c1ccccc1Cl)=NC2C (configuration not stated) | inconclusive: 42.9 µM [cytotoxic, partial curve, poor fit]
Nc1nc(Cl)nc2c1ncn2C1CC(O)C(CO)O1 (configuration not stated) | inconclusive: 15.2 µM [cytotoxic, partial curve, poor fit]
C=C1c2c(Cl)ccc(O)c2C(O)=C2C(=O)[C@@]3(O)C(O)=C(C(N)=O)C(=O)[C@@H](N(C)C)[C@@H]3[C@@H](O)[C@H]12 | inconclusive: 42.9 µM [cytotoxic, single point]
CN1CC[C@H](CN2c3ccccc3Sc3ccccc32)C1 | inactive
CCCCN=C(N)N=C(N)N | inactive
CC(C)C(=O)Oc1ccc(CO)cc1[C@H](CCN(C(C)C)C(C)C)c1ccccc1 | inconclusive: 42.9 µM [cytotoxic, single point]
COc1cc2nccc(Oc3ccc(NC(=O)C4(C(=O)Nc5ccc(F)cc5)CC4)cc3)c2cc1OC | inconclusive: 42.9 µM [cytotoxic, partial curve, poor fit]
COc1cccc2c1C(=O)c1c(O)c3c(c(O)c1C2=O)C[C@@](O)(C(=O)CO)C[C@@H]3O[C@H]1C[C@H](N)[C@H](OC2CCCCO2)[C@H](C)O1 (some centres not stated) | inconclusive: 42.9 µM [cytotoxic, single point]
Cc1oncc1C(=O)Nc1ccc(C(F)(F)F)cc1 | inconclusive: 17.1 µM [cytotoxic, partial curve]
Cc1ccc(NC(=O)c2ccc(CN3CCN(C)CC3)cc2)cc1Nc1nccc(-c2cccnc2)n1 | inconclusive: 42.9 µM [cytotoxic, single point]

3 structures from above, ordered by length of the SMILES, ascending.
SMILES | Potency
O=c1[nH]c(=O)n([C@H]2C[C@H](O)[C@@H](CO)O2)cc1C(F)(F)F | inactive
Cc1nnc2n1-c1sc(CCc3ccc(CC(C)C)cc3)cc1C(c1ccccc1Cl)=NC2C (configuration not stated) | inconclusive: 42.9 µM [cytotoxic, partial curve, poor fit]
Cc1ccc(NC(=O)c2ccc(CN3CCN(C)CC3)cc2)cc1Nc1nccc(-c2cccnc2)n1 | inconclusive: 42.9 µM [cytotoxic, single point]
